Measurements: patent publication US20260284208A1, “SYSTEM” (Oxford University Innovation Limited, priority 2023, published 2026)
This continues a long series; more values of the same kind are listed elsewhere.

System: library of 8,380 IKZF3 degrons (ZF-eGFP/mCherry reporter) in Jurkat cells
Experiment: Pooled library screen (FACS, NGS, limma voom LogFC of positive vs negative read counts)
Assay type: cell-based, human
Method: A library of 8,380 IKZF3 degrons was cloned into pLVX-Sprout to create the eGFP/mCherry protein degradation reporter plasmid pool. A lentivirus pool was then generated using the Lenti-X lentiviral vector production method.
Jurkat cells were transduced at a multiplicity of infection of <0.3 with the lentivirus vector library in order to maximise the number of cells with a single integration. Transductions were carried out in 6 well TC-treated cell culture dishes (Falcon) with 3×10^6 cells per well. Cells were incubated for 2 days at 37° C. and 5% CO2 before the supernatant was removed and replaced with fresh media. 6 days post-transduction, mCherry+ cells were isolated via FACS using the FACS Aria Fusion (BD) in a buffer containing PBS (Gibco), 2 mM EDTA (Gibco), 25 mM HEPES (Sigma) and 1% BSA (Sigma). 8 days later, cells were treated with DMSO or a thalidomide analog for 18 hours at 37° C. and 5% CO2. mCherry+GFPlow and NOT(mCherry+GFPlow) cells were sorted by FACS using the FACS Aria Fusion (BD). DMSO treated cells were used to set the mCherry+GFPlow gate and dead cells were excluded from sorting by staining cells with 1 μg/mL DAPI (ThermoFisher). gDNA was isolated using the Maxwell RSC 48 (Promega). gDNA from cells that were unsorted and untreated were also isolated to determine the library representation on the day of compound treatment. Throughout the screen >600× coverage of the library was maintained. 3 biological replicates were carried out with a new transduction taking place each time.
A two-step PCR was used where the first PCR (PCR1) amplified the integrated degron sequence from gDNA and the second PCR (PCR2) added Illumina adaptors and barcodes to permit multiplexing. See Supp F for PCR1 and PCR2 primers. Q5 Hot Start High-Fidelity 2× Master Mix (New England Biolabs) was used for both PCRs. Sufficient gDNA was amplified in PCR1 in order to maintain >600× coverage and amplicons were purified using solid phase reversible immobilization (SPRI) beads (Beckman Coulter). Purified PCR1 products were analysed on the Tapestation 4200 (Agilent) to confirm purity prior to proceeding to PCR2. Sufficient PCR1 product was amplified in PCR2 in order to maintain >600× coverage and amplicons were run on a 2% agarose TAE gel. Target bands were excised and purified using the NucleoSpin Gel and PCR Clean-up Kit (Machery Nagel). Amplicons were analysed on the Tapestation 4200 and quantified using Qubit dsDNA HS kit (ThermoFisher). PCR products were pooled and sequenced as paired-reads on the NovaSeq (Illumina) using a SP2 200 cycles kit (Illumina).
Count distributions, percentage of read mapping, library coverage and replicate correlation per sample were assessed for QC purposes.
To carry out the library screen, we used the same plasmid construct as in our earlier flow cytometry assays, but pooling all 8,380 mutants together into one Jurkat population, ensuring a copy number of one plasmid per cell (FIG. 4B). […] These GFP-negative cells were then separated from the remaining GFP-positive population using fluorescence activated cell sorting (FACS). These two populations were then sequenced and the relative abundance of every mutant in both populations compared to provide a log FC value for each mutant sequence. This value indicated how frequently a sequence is observed in the GFP-negative population relative to the GFP-positive population, and therefore how effective a degron it is for that particular IMID compound.

`O=C1CCC(N2C(=O)c3ccc(N4CCOCC4)cc3C2=O)C(=O)N1` (stereo not shown) [B03] was tested, and the B03_logFC (Degron-ID 6461, SEQ ID NO 4303, 46L_47A_49P_50I_52G_53F_54C_55C_67L_) was 2.215, the B03_logFC (Degron-ID 6475, SEQ ID NO 3714, 46L_47A_49P_50I_52G_53F_54S_55C_67L_) was 3.181 and the B03_logFC (Degron-ID 6476, SEQ ID NO 3695, 46L_47A_49P_50I_52G_53F_54T_55C_67L_) was 3.232. For the same molecule, the B03_logFC (Degron-ID 6479, SEQ ID NO 3928, 46L_47A_49P_50I_52G_53F_54Y_55C_67L) was 2.794, the B03_logFC (Degron-ID 6481, SEQ ID NO 4363, 46L_47C_49P_50I_52G_53F_54C_55C_67L_) was 2.101 and the B03_logFC (Degron-ID 6490, SEQ ID NO 4424, 46L_47C_49P_50I_52G_53F_54M_55C_67L_) was 2.015. It also gave a B03_logFC (Degron-ID 6495, SEQ ID NO 3739, 46L_47C_49P_50I_52G_53F_54S_55C_67L_) of 3.147, a B03_logFC (Degron-ID 6499, SEQ ID NO 4251, 46L_47C_49P_50I_52G_53F_54Y_55C_67L_) of 2.295 and a B03_logFC (Degron-ID 6543, SEQ ID NO 3877, 46L_47F_49P_50I_52G_53F_54E_55C_67L) of 2.888. It also gave a B03_logFC (Degron-ID 6546, SEQ ID NO 3645, 46L_47F_49P_50I_52G_53F_54H_55C_67L_) of 3.366, a B03_logFC (Degron-ID 6548, SEQ ID NO 3818, 46L_47F_49P_50I_52G_53F_54K_55C_67L_) of 2.978 and a B03_logFC (Degron-ID 6550, SEQ ID NO 3942, 46L_47F_49P_50I_52G_53F_54M_55C_67L) of 2.773. For the same molecule, the B03_logFC (Degron-ID 6551, SEQ ID NO 3784, 46L_47F_49P_50I_52G_53F_54N_55C_67L_) was 3.038, the B03_logFC (Degron-ID 6553, SEQ ID NO 3670, 46L_47F_49P_50I_52G_53F_54Q_55C_67L_) was 3.295 and the B03_logFC (Degron-ID 6554, SEQ ID NO 3709, 46L_47F_49P_50I_52G_53F_54R_55C_67L_) was 3.202. The B03_logFC (Degron-ID 6557, SEQ ID NO 3809, 46L_47F_49P_50I_52G_53F_54V_55C_67L_) was 2.992, the B03_logFC (Degron-ID 6560, SEQ ID NO 4362, 46L_47G_49P_50I_52G_53F_54A_55C_67L_) was 2.101 and the B03_logFC (Degron-ID 6561, SEQ ID NO 4408, 46L_47G_49P_50I_52G_53F_54C_55C_67L_) was 2.032. For the same molecule, the B03_logFC (Degron-ID 6564, SEQ ID NO 4332, 46L_47G_49P_50I_52G_53F_54F_55C_67L_) was 2.155, the B03_logFC (Degron-ID 6574, SEQ ID NO 4400, 46L_47G_49P_50I_52G_53F_54R_55C_67L_) was 2.038 and the B03_logFC (Degron-ID 6575, SEQ ID NO 4042, 46L_47G_49P_50I_52G_53F_54S_55C_67L) was 2.618. The B03_logFC (Degron-ID 6576, SEQ ID NO 3884, 46L_47G_49P_50I_52G_53F_54T_55C_67L) was 2.873, the B03_logFC (Degron-ID 6578, SEQ ID NO 4419, 46L_47G_49P_50I_52G_53F_54W_55C_67L_) was 2.018 and the B03_logFC (Degron-ID 6580, SEQ ID NO 4036, 46L_47H_49P_50I_52G_53F_54A_55C_67L) was 2.628. It also gave a B03_logFC (Degron-ID 6585, SEQ ID NO 4397, 46L_47H_49P_50I_52G_53F_54G_55C_67L_) of 2.041, a B03_logFC (Degron-ID 6588, SEQ ID NO 4317, 46L_47H_49P_50I_52G_53F_54K_55C_67L_) of 2.179 and a B03_logFC (Degron-ID 6591, SEQ ID NO 4396, 46L_47H_49P_50I_52G_53F_54N_55C_67L_) of 2.044. The B03_logFC (Degron-ID 6596, SEQ ID NO 3823, 46L_47H_49P_50I_52G_53F_54T_55C_67L_) was 2.967, the B03_logFC (Degron-ID 6599, SEQ ID NO 3918, 46L_47H_49P_50I_52G_53F_54Y_55C_67L) was 2.816 and the B03_logFC (Degron-ID 6605, SEQ ID NO 3876, 46L_47I_49P_50I_52G_53F_54G_55C_67L) was 2.889. The B03_logFC (Degron-ID 6614, SEQ ID NO 4286, 46L_47I_49P_50I_52G_53F_54R_55C_67L_) was 2.241, the B03_logFC (Degron-ID 6615, SEQ ID NO 3770, 46L_47I_49P_50I_52G_53F_54S_55C_67L_) was 3.076 and the B03_logFC (Degron-ID 6675, SEQ ID NO 3936, 46L_47M_49P_50I_52G_53F_54S_55C_67L) was 2.781. The B03_logFC (Degron-ID 6695, SEQ ID NO 4431, 46L_47N_49P_50I_52G_53F_54S_55C_67L_) was 2.008, the B03_logFC (Degron-ID 6700, SEQ ID NO 3828, 46L_47Q_49P_50I_52G_53F_54A_55C_67L_) was 2.958 and the B03_logFC (Degron-ID 6701, SEQ ID NO 4278, 46L_47Q_49P_50I_52G_53F_54C_55C_67L_) was 2.248. The B03_logFC (Degron-ID 6705, SEQ ID NO 4381, 46L_47Q_49P_50I_52G_53F_54G_55C_67L_) was 2.067, the B03_logFC (Degron-ID 6707, SEQ ID NO 4302, 46L_47Q_49P_50I_52G_53F_54I_55C_67L_) was 2.216 and the B03_logFC (Degron-ID 6710, SEQ ID NO 4336, 46L_47Q_49P_50I_52G_53F_54M_55C_67L_) was 2.149. For the same molecule, the B03_logFC (Degron-ID 6717, SEQ ID NO 4329, 46L_47Q_49P_50I_52G_53F_54V_55C_67L_) was 2.156, the B03_logFC (Degron-ID 6720, SEQ ID NO 4341, 46L_47R_49P_50I_52G_53F_54A_55C_67L_) was 2.14 and the B03_logFC (Degron-ID 6725, SEQ ID NO 4343, 46L_47R_49P_50I_52G_53F_54G_55C_67L_) was 2.137. For the same molecule, the B03_logFC (Degron-ID 6740, SEQ ID NO 3861, 46L_47S_49P_50I_52G_53F_54A_55C_67L) was 2.907.
